Among all 290,000 compounds or so, about 110 (0.038%) were called active. Inconclusive means that the source gave no clear call. Such entries were picked first, then a sample of the others. The call rests on the fitted dose curve; in most records, active means well fitted inhibition curve with a large enough effect in the polarisation, with a control signal flat (not every such curve was filed as active); inconclusive means small, poorly fitted or top-dose-only effect, or effect the other way, or a change in a side signal; inactive means no such curve, though single readings can be large or run the other way; the % refers to the polarisation. A potency beside an inconclusive call is a rough fit, not a confirmed value. “Side channel” marks fits to a control or component signal instead of the main read-out.
target: Histone-lysine N-methyltransferase 2A (Homo sapiens) (UniProt Q03164); experiment: qHTS Fluorescence Polarization Assay for Inhibitors of MLL CXXC domain - DNA interaction; conditions: MLL-CXXC / FITC-HOXA9 DNA fluorescence polarization; activity change, negative = inhibition: at 115 µM (top of the series)
Summary of the method: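 Fluorescence polarization: 7 uM MLL-CXXC (stock) preincubated 5 min with compounds, then 50 nM fluorescein-HOX-A9 DNA (stock) added; 30 min ambient. Buffer 50 mM Tris-HCl pH 7.5, 50 mM NaCl, 1 mM DTT, 0.05% BSA.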
Potency means the concentration at half of the fitted maximal effect.

By UniProt entry, the sequences of proteins in these tests, tags left out.
UniProt Q03164, whole entry, looked up: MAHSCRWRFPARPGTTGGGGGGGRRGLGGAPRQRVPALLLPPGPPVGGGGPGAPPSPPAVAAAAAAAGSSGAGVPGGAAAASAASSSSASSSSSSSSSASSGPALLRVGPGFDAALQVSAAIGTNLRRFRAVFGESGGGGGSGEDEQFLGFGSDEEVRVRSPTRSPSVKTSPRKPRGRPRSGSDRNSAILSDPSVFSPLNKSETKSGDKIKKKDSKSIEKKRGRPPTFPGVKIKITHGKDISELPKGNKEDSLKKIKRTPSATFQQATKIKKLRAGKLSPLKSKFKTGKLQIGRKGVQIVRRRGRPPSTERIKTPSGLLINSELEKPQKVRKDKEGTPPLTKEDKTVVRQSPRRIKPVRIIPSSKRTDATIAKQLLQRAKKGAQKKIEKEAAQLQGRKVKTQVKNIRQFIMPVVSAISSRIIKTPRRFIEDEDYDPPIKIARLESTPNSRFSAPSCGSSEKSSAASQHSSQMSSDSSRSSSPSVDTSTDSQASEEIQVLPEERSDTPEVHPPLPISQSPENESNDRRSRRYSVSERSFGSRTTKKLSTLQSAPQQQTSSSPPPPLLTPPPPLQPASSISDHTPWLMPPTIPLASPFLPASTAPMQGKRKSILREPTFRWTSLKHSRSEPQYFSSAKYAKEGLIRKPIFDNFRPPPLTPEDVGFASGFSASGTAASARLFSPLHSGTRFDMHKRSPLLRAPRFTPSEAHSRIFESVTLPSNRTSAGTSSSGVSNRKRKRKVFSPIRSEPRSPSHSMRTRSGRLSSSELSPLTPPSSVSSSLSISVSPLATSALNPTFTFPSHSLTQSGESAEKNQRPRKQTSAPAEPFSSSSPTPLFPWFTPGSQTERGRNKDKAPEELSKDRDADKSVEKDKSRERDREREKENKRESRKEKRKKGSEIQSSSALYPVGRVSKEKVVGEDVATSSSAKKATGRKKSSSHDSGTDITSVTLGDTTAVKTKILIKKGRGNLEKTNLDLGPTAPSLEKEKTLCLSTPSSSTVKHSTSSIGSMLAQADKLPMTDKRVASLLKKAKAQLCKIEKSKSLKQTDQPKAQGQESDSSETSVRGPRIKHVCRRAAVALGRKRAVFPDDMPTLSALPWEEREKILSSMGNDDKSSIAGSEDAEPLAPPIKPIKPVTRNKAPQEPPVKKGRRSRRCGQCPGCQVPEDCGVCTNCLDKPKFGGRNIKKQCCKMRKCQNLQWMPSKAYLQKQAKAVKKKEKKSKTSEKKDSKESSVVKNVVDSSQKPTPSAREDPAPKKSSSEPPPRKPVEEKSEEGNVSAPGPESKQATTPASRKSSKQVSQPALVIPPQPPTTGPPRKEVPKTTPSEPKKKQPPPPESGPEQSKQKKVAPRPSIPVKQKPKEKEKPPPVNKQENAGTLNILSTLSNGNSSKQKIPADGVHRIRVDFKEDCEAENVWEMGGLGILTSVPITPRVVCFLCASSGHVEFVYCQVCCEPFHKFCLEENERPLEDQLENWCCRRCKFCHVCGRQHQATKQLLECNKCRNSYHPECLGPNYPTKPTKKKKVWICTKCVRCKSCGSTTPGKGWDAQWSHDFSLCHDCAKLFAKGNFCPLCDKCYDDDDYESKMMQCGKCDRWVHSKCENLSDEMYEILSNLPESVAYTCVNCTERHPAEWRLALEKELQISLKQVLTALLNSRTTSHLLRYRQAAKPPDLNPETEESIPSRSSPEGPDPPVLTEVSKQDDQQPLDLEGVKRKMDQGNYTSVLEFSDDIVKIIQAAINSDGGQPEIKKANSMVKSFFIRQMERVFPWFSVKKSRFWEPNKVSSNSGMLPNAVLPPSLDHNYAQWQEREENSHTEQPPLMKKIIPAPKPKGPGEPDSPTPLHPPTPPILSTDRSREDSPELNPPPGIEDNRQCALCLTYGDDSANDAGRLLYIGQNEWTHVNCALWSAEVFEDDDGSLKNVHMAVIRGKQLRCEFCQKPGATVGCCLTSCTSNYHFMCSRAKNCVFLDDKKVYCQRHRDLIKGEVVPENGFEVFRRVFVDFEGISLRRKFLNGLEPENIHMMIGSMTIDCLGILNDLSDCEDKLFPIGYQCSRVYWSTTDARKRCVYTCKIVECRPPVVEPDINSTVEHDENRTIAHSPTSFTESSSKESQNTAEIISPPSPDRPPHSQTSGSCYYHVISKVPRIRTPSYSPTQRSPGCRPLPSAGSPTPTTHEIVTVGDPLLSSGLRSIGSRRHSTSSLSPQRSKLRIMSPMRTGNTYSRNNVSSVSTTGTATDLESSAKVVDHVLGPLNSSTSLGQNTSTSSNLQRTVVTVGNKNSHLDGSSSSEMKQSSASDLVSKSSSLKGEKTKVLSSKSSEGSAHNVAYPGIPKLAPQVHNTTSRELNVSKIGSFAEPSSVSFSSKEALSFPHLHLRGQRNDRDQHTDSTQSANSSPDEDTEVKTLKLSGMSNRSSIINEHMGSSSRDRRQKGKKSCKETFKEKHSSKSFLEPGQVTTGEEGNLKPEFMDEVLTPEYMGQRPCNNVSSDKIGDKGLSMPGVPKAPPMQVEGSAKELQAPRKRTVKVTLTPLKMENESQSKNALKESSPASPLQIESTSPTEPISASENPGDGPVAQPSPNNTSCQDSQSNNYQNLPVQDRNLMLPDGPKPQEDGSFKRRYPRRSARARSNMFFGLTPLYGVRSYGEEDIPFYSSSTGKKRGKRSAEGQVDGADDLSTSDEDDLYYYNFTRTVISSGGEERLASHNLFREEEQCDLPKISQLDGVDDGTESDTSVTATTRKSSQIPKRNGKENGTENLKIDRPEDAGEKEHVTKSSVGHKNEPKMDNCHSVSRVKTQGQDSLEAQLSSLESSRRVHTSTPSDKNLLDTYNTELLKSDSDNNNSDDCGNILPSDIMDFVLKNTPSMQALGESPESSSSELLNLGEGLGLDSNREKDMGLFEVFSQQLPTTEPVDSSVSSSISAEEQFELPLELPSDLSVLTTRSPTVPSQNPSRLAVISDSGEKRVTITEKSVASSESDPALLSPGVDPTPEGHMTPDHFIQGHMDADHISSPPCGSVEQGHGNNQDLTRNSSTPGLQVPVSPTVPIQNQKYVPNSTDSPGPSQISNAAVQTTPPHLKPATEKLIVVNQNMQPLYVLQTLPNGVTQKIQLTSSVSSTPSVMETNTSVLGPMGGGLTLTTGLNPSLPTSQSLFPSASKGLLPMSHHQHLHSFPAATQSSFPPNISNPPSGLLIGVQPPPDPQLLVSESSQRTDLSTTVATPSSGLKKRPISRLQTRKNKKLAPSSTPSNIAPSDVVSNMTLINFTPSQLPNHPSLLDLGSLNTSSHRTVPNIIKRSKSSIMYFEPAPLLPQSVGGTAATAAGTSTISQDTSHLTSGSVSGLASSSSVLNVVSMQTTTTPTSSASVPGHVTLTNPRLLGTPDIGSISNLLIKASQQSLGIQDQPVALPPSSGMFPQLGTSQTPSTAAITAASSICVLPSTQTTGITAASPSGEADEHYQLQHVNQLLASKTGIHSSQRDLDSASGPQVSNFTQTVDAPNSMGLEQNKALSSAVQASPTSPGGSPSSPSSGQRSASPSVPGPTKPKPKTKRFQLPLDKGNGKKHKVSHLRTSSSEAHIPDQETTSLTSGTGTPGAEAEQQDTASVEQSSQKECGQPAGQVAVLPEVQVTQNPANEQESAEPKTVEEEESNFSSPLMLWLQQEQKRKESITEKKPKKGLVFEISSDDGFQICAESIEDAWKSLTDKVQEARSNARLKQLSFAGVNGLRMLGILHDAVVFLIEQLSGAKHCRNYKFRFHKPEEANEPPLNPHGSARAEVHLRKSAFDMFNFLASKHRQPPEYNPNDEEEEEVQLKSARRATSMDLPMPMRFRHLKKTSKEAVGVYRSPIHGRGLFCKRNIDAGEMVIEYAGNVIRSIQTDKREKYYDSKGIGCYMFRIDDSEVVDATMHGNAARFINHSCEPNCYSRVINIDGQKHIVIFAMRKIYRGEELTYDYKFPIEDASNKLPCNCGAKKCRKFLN

SMILES	Potency	activity change, negative = inhibition
CCCC(=O)NC(c1ccc(C)cc1)c1ccc2cccnc2c1O (stereo unspecified)	inconclusive: 22.4 µM [inhibitor, partial curve]	
Cc1c(NC(=S)NNC(=O)CCC(=O)O)c(=O)n(-c2ccccc2)n1C	inconclusive: 35.5 µM [inhibitor, single point]	
CCCc1c(C)nc2ccccc2c1SCCC#N	inconclusive: 14.1 µM [fluorescent, side channel, full curve, poor fit]	
CN1/C(=C\C=C(/C#N)C(=O)Nc2ccc(Cl)cc2)C(C)(C)c2ccccc21	inconclusive: 11.2 µM [fluorescent, side channel, full curve]	
COc1cc(OC)c(OC)cc1CCC(C)NCCC(c1ccccc1)c1ccccc1 (stereo unspecified)		inactive: 5.1%
COC(=O)c1ccc(/C=N/NC(=O)C(=O)NCc2ccccc2)cc1	inconclusive: 2.82 µM [fluorescent, side channel, full curve]	
Cc1cc(C)cc(OCC(=O)Nc2cc(C)on2)c1	inconclusive: 3.16 µM [inhibitor, full curve]	
CNC(=O)CSc1nnc(COc2ccc([N+](=O)[O-])cc2)n1C	inconclusive: 12.6 µM [fluorescent, side channel, full curve]	
Cn1cc(P(=S)(N2CCOCC2)N2CCOCC2)cc1P(=S)(N1CCOCC1)N1CCOCC1	inconclusive: 11.2 µM [quencher, side channel, single point]	
Cc1ccc(S(=O)(=O)CCC(=O)Nc2ccccc2Br)cc1	inconclusive: 35.5 µM [fluorescent, side channel, partial curve]	
CCOC(=O)C1C(=O)NC(SCC(N)=O)=C(C#N)C1c1ccccc1OCC (stereo unspecified)	inconclusive: 70.8 µM [fluorescent, side channel, single point]	
O=C(Nc1nccs1)c1cccc(N2C(=O)c3cccc4c([N+](=O)[O-])ccc(c34)C2=O)c1		inactive: 1.69%
O=C1CC(C(=O)Nc2cc(Cl)ccc2Cl)n2ncnc2N1 (stereo unspecified)	inconclusive: 35.5 µM [fluorescent, side channel, single point]	
CCc1ccc(C2CC(c3ccco3)=NN2S(C)(=O)=O)cc1 (stereo unspecified)	inconclusive: 89.1 µM [inhibitor, single point]	
CC(=O)c1cccc2c(O)c(C3=Nc4ccccc4C3=O)[nH]c12	inconclusive: 44.7 µM [inhibitor, single point]	
COc1ccc(-c2cc(C(=O)N/N=C(\C)c3ccco3)c3ccccc3n2)c(OC)c1	inconclusive: 14.1 µM [fluorescent, side channel, full curve]	
C/C(=N\NC(=O)c1ccc(C)cc1C)c1ccc2c(c1)OCO2	inconclusive: 11.2 µM [inhibitor, single point]	
COc1ccc2c(c1)CCC1C2CC[C@@]2(C)C1CC[C@@H]2NCCCCCCN1C(=O)C=CC1=O (stereo partly specified)		inactive: 5.29%
COc1ccc(CCn2c(=O)[nH]c3cc(C(=O)N4CCN(c5ccccc5)CC4)ccc3c2=O)cc1OC		inactive: 17.5%
CC[C@@]1(O)C(=O)OCc2c1cc1n(c2=O)Cc2cc3c([N+](=O)[O-])cccc3nc2-1		inactive: 6.75%

3 of the compounds above, with each value named.
CNC(=O)CSc1nnc(COc2ccc([N+](=O)[O-])cc2)n1C
  Potency: inconclusive: 12.6 µM [fluorescent, side channel, full curve]
Cn1cc(P(=S)(N2CCOCC2)N2CCOCC2)cc1P(=S)(N1CCOCC1)N1CCOCC1
  Potency: inconclusive: 11.2 µM [quencher, side channel, single point]
O=C(Nc1nccs1)c1cccc(N2C(=O)c3cccc4c([N+](=O)[O-])ccc(c34)C2=O)c1
  activity change, negative = inhibition: inactive: 1.69%

Later entries.

SMILES	Potency	activity change, negative = inhibition
COc1ccc2sc(SCCCS(=O)(=O)O)[n+](CCCS(=O)(=O)[O-])c2c1		inactive: -15.6%
COC(=O)c1ccc(OCC2c3cc(OC)c(OC)cc3CCN2C(C)=O)cc1 (stereo unspecified)		inactive: 3.35%
CCOC(=O)C1CCCN(c2c(N3CCc4ccccc4C3)c(=O)c2=O)C1 (stereo unspecified)	inconclusive: 7.94 µM [fluorescent, side channel, single point]	
Cc1cc(Cl)ccc1OC(C)C(=O)Nc1ccc(S(=O)(=O)Nc2cnc3ccccc3n2)cc1 (stereo unspecified)	inconclusive: 6.31 µM [inhibitor, partial curve]	
COc1ccccc1-n1c(N)c(C(=O)NCC2CCCO2)c2nc3ccccc3nc21 (stereo unspecified)		inactive: 1.56%
Cn1c(SCC(=O)Nc2ccc(C(N)=O)cc2)nc2c(c1=O)SCC2	inconclusive: 35.5 µM [fluorescent, side channel, single point]	
COc1ccccc1-c1c(C)c(C)nc(N)c1C#N		inactive: -0.896%
CC(=O)c1ccc(OCc2cc(C(=O)N3CC[C@@H]4CCCC[C@H]4C3)no2)cc1	inconclusive: 35.5 µM [activator, partial curve]	
O=C1CCCN1CCCN=c1c([N+](=O)[O-])nn(-c2ccc(Cl)cc2)n1O	inconclusive: 31.6 µM [fluorescent, side channel, single point]	
N=C1/C(=C\c2ccc(SCc3ccco3)o2)C(=O)N=C2SC=NN12	inconclusive: 22.4 µM [fluorescent, side channel, partial curve]	
COc1ccc2ccccc2c1/C=N/Nc1cccc(C(=O)O)c1		inactive: 3.1%
O=C(NCCCN1CCc2ccccc2C1)Nc1ccc(Br)cc1		inactive: -4.8%
C/C(O)=C/c1nc2ccccc2[nH]c1=O		inactive: -5.41%
Cc1cccc(N2CCN(CC(=O)Nc3ccccc3[N+](=O)[O-])CC2)c1C		inactive: 0.605%
CCN(CC)C(=O)Cn1c(=O)c2ccccc2n2c(=S)sc(-c3cccc(C)c3)c12	inconclusive: 39.8 µM [fluorescent, side channel, partial curve]	
CCN(CC)CCNc1ccnc2cc(Cl)ccc12		inactive: -2.89%
O=C(O)c1ccc(CSc2nnc(-c3cccnc3)n2-c2ccc(Br)cc2)cc1	inconclusive: 8.91 µM [quencher, side channel, single point]	
COc1ccccc1N=NC1C(=O)N(C(N)=S)N=C1C (stereo unspecified)	inconclusive: 39.8 µM [inhibitor, single point]	
O=c1ncn(-c2cccc(F)c2)c2ncccc12	inconclusive: 70.8 µM [fluorescent, side channel, single point]	
O=C(COc1ccc(-n2cnnn2)cc1)NC1CCCCC1	inconclusive: 2.82 µM [inhibitor, full curve, poor fit]	

Reference: PubChem BioAssay AID2662 (National Center for Advancing Translational Sciences (NCATS), 2010)
